## Primary screen of a compound library

Protein sequences, listed by entry. Tags and fused reporters are not part of them. Residues count along the entry.
UniProt Q4DA54, 1-478: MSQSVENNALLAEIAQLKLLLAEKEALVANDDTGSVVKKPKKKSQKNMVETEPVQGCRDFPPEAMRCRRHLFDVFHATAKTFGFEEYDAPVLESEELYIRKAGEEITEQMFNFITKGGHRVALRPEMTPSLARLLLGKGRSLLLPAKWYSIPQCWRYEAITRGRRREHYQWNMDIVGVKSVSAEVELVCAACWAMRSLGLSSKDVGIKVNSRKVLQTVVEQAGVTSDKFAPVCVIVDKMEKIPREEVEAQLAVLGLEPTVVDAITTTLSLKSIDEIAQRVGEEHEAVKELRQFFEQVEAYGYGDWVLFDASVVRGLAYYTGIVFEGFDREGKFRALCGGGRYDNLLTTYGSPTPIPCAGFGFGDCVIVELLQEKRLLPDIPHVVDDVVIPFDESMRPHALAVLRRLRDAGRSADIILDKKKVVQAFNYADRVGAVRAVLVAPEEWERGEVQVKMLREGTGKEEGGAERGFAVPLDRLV
UniProt P9WPC5, whole entry: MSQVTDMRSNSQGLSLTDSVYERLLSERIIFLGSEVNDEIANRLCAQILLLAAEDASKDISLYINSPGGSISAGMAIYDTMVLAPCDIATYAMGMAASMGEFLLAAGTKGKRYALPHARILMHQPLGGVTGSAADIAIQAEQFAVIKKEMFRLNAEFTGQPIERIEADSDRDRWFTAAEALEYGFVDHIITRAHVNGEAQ
UniProt P9WPC3, whole entry partner: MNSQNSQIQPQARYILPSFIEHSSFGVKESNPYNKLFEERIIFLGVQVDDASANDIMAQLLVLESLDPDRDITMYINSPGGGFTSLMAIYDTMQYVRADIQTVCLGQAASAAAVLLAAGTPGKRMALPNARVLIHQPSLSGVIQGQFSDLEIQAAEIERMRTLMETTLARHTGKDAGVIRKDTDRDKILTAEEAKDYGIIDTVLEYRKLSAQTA
UniProt Q8IDJ8, 1-583: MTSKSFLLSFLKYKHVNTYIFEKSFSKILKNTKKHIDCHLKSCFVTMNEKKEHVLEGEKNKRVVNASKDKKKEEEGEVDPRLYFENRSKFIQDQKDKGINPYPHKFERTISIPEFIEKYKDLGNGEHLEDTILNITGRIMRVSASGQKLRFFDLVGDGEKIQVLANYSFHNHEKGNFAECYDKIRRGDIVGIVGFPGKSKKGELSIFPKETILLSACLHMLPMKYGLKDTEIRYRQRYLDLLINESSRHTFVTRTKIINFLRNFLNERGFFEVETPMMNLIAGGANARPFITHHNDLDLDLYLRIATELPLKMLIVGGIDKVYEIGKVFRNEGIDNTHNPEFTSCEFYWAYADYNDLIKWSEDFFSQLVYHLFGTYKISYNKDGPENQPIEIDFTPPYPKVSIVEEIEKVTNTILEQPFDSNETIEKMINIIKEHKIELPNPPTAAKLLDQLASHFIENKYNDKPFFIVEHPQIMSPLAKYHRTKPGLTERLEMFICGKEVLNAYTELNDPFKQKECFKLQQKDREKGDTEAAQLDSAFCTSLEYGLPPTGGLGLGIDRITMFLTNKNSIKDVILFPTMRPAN

The values are deposited in ChEMBL (CHEMBL3988442, “University of Dundee, Small-Polar-MMV Screening Library” (2021)).

Leishmania in macrophages: 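Cell assay of Leishmania donovani living inside macrophages; the read-out is not stated. Compounds at 30 µM. Direction is inferred from retests: higher values go with stronger inhibition. Size under these conditions: about 69,000 compounds, about 1,000 of them at 50% or above in at least one test.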
TcHisRS: 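Enzyme assay of histidyl-tRNA synthetase; the read-out is not stated. Target: Histidine-tRNA ligase, Trypanosoma cruzi CL Brener (UniProt Q4DA54). Tested at 30 µM. The record gives no direction; compounds that gave an IC50 in retests scored well above the rest, so higher reads as stronger inhibition. Of about 69,000 compounds tested this way, about 31 (0.045%) reached 50% or more in at least one test.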
ClpP1P2: 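ClpP1P2, Mycobacterium tuberculosis (UniProt P9WPC5 and UniProt P9WPC3). Protease assay of ClpP1P2, read by the AMC dye that it sets free. Tested at 50 µM. Higher reads as stronger inhibition, judged from the few compounds that gave an IC50. Most other retested compounds had strongly negative values. Size under these conditions: about 69,000 compounds, about 10 of them at 50% or above in at least one test.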
Toxoplasma: 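Assay of Toxoplasma gondii numbers, read through their beta-galactosidase reporter with a colour substrate. Compounds at 10 µM. The record gives no direction; the compounds picked for IC50 retests had high values, so higher reads as fewer parasites. About 67,000 compounds were tested under these conditions; 0.38% (about 260) showed 50% or more at least once.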
PfKRS1: 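Lysine-tRNA ligase, Plasmodium falciparum 3D7 (UniProt Q8IDJ8). Enzyme assay of the cytosolic lysyl-tRNA synthetase in 384-well plates, read by luminescence. Compounds at 30 µM. Direction is inferred from only a few compounds that gave an IC50; most scored high, so higher reads as stronger inhibition. About 69,000 compounds were tested under these conditions; 0.071% (about 49) showed 50% or more at least once.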

Each number is a percent effect as filed.
The controls that fix the scale are not given in the record; negative values are as filed.
This is an unselected part of the compounds tested.
A dash means the value is not listed here; it may have been measured.

- OCCCN(CCc1cccc(F)c1)C1CC1 : Leishmania in macrophages: -19.27%; TcHisRS: 13%; ClpP1P2: 21%; Toxoplasma: 5.498%; PfKRS1: 0.1297%
- CS(=O)(=O)N1CCc2ccc(=O)n(CCN3CCCC3)c2CC1 : TcHisRS: 6.667%; ClpP1P2: -13.03%; PfKRS1: 4.978%
- Cn1ccc2c(C(=O)NCC3(C(N)=O)CCOCC3)cccc21 : Leishmania in macrophages: 31.01%; TcHisRS: 8.163%; ClpP1P2: -23.86%; Toxoplasma: 4.783%; PfKRS1: 7.747%
- O=C(CC1CC1)N[C@@H]1CN(Cc2ccc(F)cc2)C[C@@H]2CCCO[C@@H]21 : TcHisRS: 4.902%; ClpP1P2: -2.011%; PfKRS1: 0.9769%
- COc1ccc(CN(C)CC(=O)Nc2ccc3[nH]c(=O)[nH]c3c2)cc1F : Leishmania in macrophages: 6.792%; TcHisRS: 3.017%; ClpP1P2: 0.3801%; Toxoplasma: 3.191%; PfKRS1: 3.019%
- CC(C)N(CCSc1ncnc2[nH]ncc12)C(C)C : Leishmania in macrophages: 4.788%; TcHisRS: 2.128%; ClpP1P2: -1.524%; Toxoplasma: -3.45%; PfKRS1: 6.788%
- [H][C@]12CCCN(S(=O)(=O)c3ccc(OC)cc3)[C@@]1([H])CN(C(=O)C1CC1)C2 : Leishmania in macrophages: -6.722%; Toxoplasma: -0.916%
- COCC(=O)NC(C)Cc1cccc(Br)c1 (stereo unspecified) : Leishmania in macrophages: -11.19%; TcHisRS: 0.3802%; ClpP1P2: 5.259%; Toxoplasma: 17.64%; PfKRS1: 2.268%
- O=C(O)C(F)(F)F.[H][C@@]12CCN(Cc3ccco3)C[C@@]1([H])O[C@H](C(=O)NCC1CCOCC1)C2 : Leishmania in macrophages: -20%; Toxoplasma: 2.564%
- OCCn1cc(CN2CCN(CCOc3ccccc3)CC2)cn1 : Leishmania in macrophages: 13.26%; TcHisRS: 2.682%; ClpP1P2: 4.309%; Toxoplasma: 1.292%; PfKRS1: 2.616%
- CSc1nnc(CC2CCN(C(=O)Cc3ccncc3)CC2)n1C : Leishmania in macrophages: 7.723%; TcHisRS: 1.149%; ClpP1P2: -5.908%; Toxoplasma: 4.536%; PfKRS1: 4.975%
- O=C(CN1CCc2cncnc2C1)NC(C1CC1)C1CC1 : Leishmania in macrophages: -15.55%; TcHisRS: 4.819%; ClpP1P2: -3.088%; Toxoplasma: -17.41%; PfKRS1: -3.127%
- CN(C)C(=O)CC1CC2(CCN(Cc3ccco3)CC2)c2ccccc21.O=C(O)C(F)(F)F (stereo unspecified) : Leishmania in macrophages: 2.4%; Toxoplasma: 0.1918%
- Cc1nc(NCc2nncn2C2CC2)c2c(CC(C)C)csc2n1 : Leishmania in macrophages: -21.47%; TcHisRS: 5.025%; ClpP1P2: -36.46%; Toxoplasma: -13.67%; PfKRS1: -7.034%
- FC1(F)CCN(Cc2cccnc2)CC12CCN(c1cnccn1)C2 (stereo unspecified) : TcHisRS: 2%; ClpP1P2: -8.227%; PfKRS1: 2.23%
- CCOCC1CN(Cc2ccoc2)Cc2cn(CC3CC3)nc21 (stereo unspecified) : Leishmania in macrophages: 26.22%; TcHisRS: 2.299%; ClpP1P2: 8.373%; Toxoplasma: 5.011%; PfKRS1: 0.5932%
- O=S(=O)(CCN1CCOC(Cn2cccn2)C1)C(F)(F)F (stereo unspecified) : Leishmania in macrophages: -6.492%; TcHisRS: -12.41%; ClpP1P2: 19.16%; Toxoplasma: -0.05624%; PfKRS1: 0.3871%
- Cc1noc(C)c1CN1CCc2c(CNc3nccs3)n[nH]c2C1.O=C(O)C(F)(F)F : Leishmania in macrophages: 0.2666%; Toxoplasma: -2.685%
- Cn1cc(CN2CCc3c(nnn3C)C2COCc2ccccc2)cn1 (stereo unspecified) : TcHisRS: 4.372%; ClpP1P2: 4.567%; PfKRS1: -3.619%
- CN1CCC2(CCN(Cc3nccs3)CC2)C1=O.O=C(O)C(F)(F)F : Leishmania in macrophages: 34.38%; Toxoplasma: 8.621%
- CC(=O)N1CCCN(C(C(=O)O)c2ccccc2OC(F)(F)F)CC1 (stereo unspecified) : Leishmania in macrophages: 9.568%; TcHisRS: 8.19%; ClpP1P2: -11.12%; Toxoplasma: 15.53%; PfKRS1: 0.3864%
- CCC(CO)N(Cc1cccnc1)C(=O)c1ccc(C(F)(F)F)nc1O (stereo unspecified) : Leishmania in macrophages: -38.98%; TcHisRS: 10.98%; ClpP1P2: -4.81%; Toxoplasma: -14.94%; PfKRS1: 0.01177%
- Cc1ccc(S(=O)(=O)N2CCOc3ccccc32)cc1C(N)=O : Leishmania in macrophages: 8.781%; TcHisRS: 1.527%; ClpP1P2: 30.02%; Toxoplasma: -13.01%; PfKRS1: -0.422%
- Cc1ccc(CN2CCn3cc(CN4CCN(C)CC4)nc3C2)cc1.O=C(O)C(F)(F)F.O=C(O)C(F)(F)F.O=C(O)C(F)(F)F : Leishmania in macrophages: 19.05%; Toxoplasma: -30.28%
- CCCc1cncnc1N1CCC(NCCc2ccc(O)cc2)CC1 : Leishmania in macrophages: 12.1%; TcHisRS: 1.478%; ClpP1P2: -6.083%; Toxoplasma: 1.665%; PfKRS1: 6.355%
- CC(C)CN1C[C@@H]2CN(S(=O)(=O)c3cccs3)C[C@@H]2C1=O : TcHisRS: 2.913%; ClpP1P2: -17.4%; PfKRS1: 1.377%
- Cc1nccn1C1CCCN(C(=O)c2cccc(-n3cccc3)c2)C1 (stereo unspecified) : Leishmania in macrophages: 2.209%; TcHisRS: 11.43%; ClpP1P2: 5.38%; Toxoplasma: -45.41%; PfKRS1: -0.5394%
- CN(C)CC(NC(=O)c1ccn(C)c(=O)c1)c1ccccc1 (stereo unspecified) : Leishmania in macrophages: 12.87%; TcHisRS: -0.4425%; ClpP1P2: -6.102%; Toxoplasma: 21.44%; PfKRS1: 5.298%

Some entries from above, unchanged:

SMILES	Leishmania in macrophages	TcHisRS	ClpP1P2	Toxoplasma	PfKRS1
Cc1ccc(CN2CCn3cc(CN4CCN(C)CC4)nc3C2)cc1.O=C(O)C(F)(F)F.O=C(O)C(F)(F)F.O=C(O)C(F)(F)F	19.05	-	-	-30.28	-
CCOCC1CN(Cc2ccoc2)Cc2cn(CC3CC3)nc21 (stereo unspecified)	26.22	2.299	8.373	5.011	0.5932